Test results taken from paper PMC12470154 (International Journal of Molecular Sciences, 2025).
Plain letter strings leave the end groups untold.

Experiment: peptide made by a vendor
Conditions: whole synthesis, HPLC

Row | Sequence | purity (crude or final not stated) [%]
1 | RKKRRQRRRGGGGITDFGIFIGL | 99.6
2 | RKKRRQRRRGGGGITDFGIFIGLGGGGSRQIKIWFQNRRMKWKK | 94.54
3 | RKKRRQRRRGGGGVTDFGVFVEI | 98.9
4 | RKKRRQRRRGGGGVVVHINGGKFGGGGSRQIKIWFQNRRMKWKK | 98.3
5 | VTDFGVFVEIGGGGSRQIKIWFQNRRMKWKK | 94.52
6 | VVVHINGGKFGGGGSRQIKIWFQNRRMKWKK | 98.03
